Values of other authors as cited in patent publication US20130189727A1, “Methods And Compositions For Cellular Imaging And Cancer Cell Detection Using Light Harvesting Conjugated Polymer-Biomolecular Conjugates” (NATIONAL UNIVERSITY OF SINGAPORE, priority 2010, published 2013).
Some entries share one result that the patent states for a list of compounds.

Conditions: commercial dyes, comparison; cited from earlier work

## rhodamine
  time to lose fluorescence under CLSM laser illumination: ≤ 3 min
